Assay results reported in patent publication EP4635953A1, “PYRROLOPYRIDINE DERIVATIVE, AND PHARMACEUTICAL COMPOSITION THEREOF AND USE THEREOF” (Iregene Therapeutics Co., Ltd, priority 2022, dated 2024).

System: single-stranded miR-145
Test: Isothermal titration calorimetry (ITC), Waters Nano-ITC
Assay type: binding
Conditions: Multiple Sites model
From the text: Isothermal titration calorimetry (ITC) utilizes the principle of power compensation to accurately obtain the enthalpy change of intermolecular interactions within a broad concentration range in the system through a single concentration scan. It measures the heat change during binding and provides the complete thermodynamic characteristics of nucleic acid-ligand interactions. Quantifying the thermodynamic properties and energy of the complex is essential for analyzing the molecular basis of the interaction between the microRNA miR-145 and the compound. The present invention uses the Waters Nano-ITC calorimeter to in vitro verify the nucleic acid-small molecule interactions.
The experimental process involves placing 300µL of a 50µM single-stranded miR-145 solution in a temperaturecontrolled sample chamber, and using small molecule A-3-6 (i.e., the 2-phenyl-N-(1H-pyrrolo[2,3-c]pyridine-5-yl)acetamide obtained in Example 9) as the ligand in a 50µL, 500µM concentration, which is gradually injected (or titrated) into the sample chamber. The heat change is measured by comparing the sample chamber with a reference chamber, showing either an endothermic or exothermic peak. The interaction pattern between the two reactants is fitted using the software provided by the instrument, and it directly calculates the reaction binding enthalpy (ΔH, kJ/mol), reaction binding entropy (ΔS, J/(mol·K)), number of binding sites (n), and binding equilibrium constant (Ka, M), obtaining the kinetic data. […] The calculated number of binding sites (nSite) for A-3-6 with miR-145 solution are n1=3 and n2=1.8, with Kd1=7.017E-8 and Kd2=7.544E-9, ΔH1=-69.08 and ΔH2=-137.2, ΔS1=-9.474E1 and ΔS2=-3.048E2.

O=C(Cc1ccccc1)Nc1cc2cc[nH]c2cn1 [Compound A-3-6, 2-Phenyl-N-(1H-Pyrrolo[2,3-c]pyridin-5-yl)acetamide]
number of binding sites (nSite) n1 (500µM ligand titrated into 50µM miR-145, site 1): 3 | number of binding sites (nSite) n2 (500µM ligand titrated into 50µM miR-145, site 2): 1.8 | ΔH1 (reaction binding enthalpy) (site 1): -16.51 kcal/mol | ΔS1 (reaction binding entropy) (site 1): -9.474E1 J/(mol·K) | ΔH2 (reaction binding enthalpy) (site 2): -32.79 kcal/mol | ΔS2 (reaction binding entropy) (site 2): -3.048E2 J/(mol·K)
